Counter-ions that a name gives are not always drawn. The list shows a part of the results. Single values are uncertain here, since repeats match poorly.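 Cells: ReNCell VM human fetal ventral-midbrain neural progenitors, differentiated mitogen-free. Blinded raters compared doublecortin-stained (early neurons) or tyrosine hydroxylase-stained (dopaminergic neurons) images with untreated wells, where 0 means no change. After repeats and both raters were averaged, compounds scoring 2 or above became hits for retesting.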
Tests used:
[1] = tested on: ReNCell VM; experiment: neuronal differentiation score (DCX+ cell fraction vs untreated, manual image score) (score (-3 to 3)); higher = more neuronal differentiation; settings: 2 uM, 2 weeks
[2] = tested on: ReNCell VM; experiment: dopaminergic neuron differentiation score (TH+ cell fraction vs untreated, manual image score) (score (0 to 3)); higher = more TH+ dopaminergic neuron differentiation; settings: 2 uM, 4 weeks, BDNF 10 ng/ml + GDNF 10 ng/ml

`NC(=O)c1ncn([C@@H]2O[C@H](CO)[C@@H](O)[C@H]2O)c1O` [Mizoribine] was tested, and the neuronal differentiation score ([1]; library: LOPAC) was inactive: 0 and the “dopaminergic neuron differentiation score” value ([2]; library: LOPAC) was inactive: 0.
In the case of `C[C@@H]1CC(=O)NN=C1c1ccc(NN=C(C#N)C#N)cc1`, the neuronal differentiation score ([1]; library: Spectrum) is reported as inactive: 0 and the “dopaminergic neuron differentiation score” value ([2]; library: Spectrum) is reported as inactive: 0.
For `CC(C)=CCC/C(C)=C/CC/C(C)=C/CC/C(C)=C/CC1=C(C)C(=O)c2ccccc2C1=O`, the neuronal differentiation score ([1]; library: Spectrum) was inactive: 0 and the “dopaminergic neuron differentiation score” value ([2]; library: Spectrum) was inactive: 0.
For `N=C1Sc2ccccc2C2=NCCCN12`, the neuronal differentiation score ([1]; library: LOPAC) was inactive: 0 and the “dopaminergic neuron differentiation score” value ([2]; library: LOPAC) was inactive: 0.
For `CC1(C)O[C@@H]2[C@@H](CO[C@@]3(COS(N)(=O)=O)OC(C)(C)O[C@@H]23)O1`, the neuronal differentiation score ([1]; library: Spectrum) was inactive: 0 and the “dopaminergic neuron differentiation score” value ([2]; library: Spectrum) was inactive: 0.
In the case of `O=S(=O)(O)c1cc(N=C=S)ccc1/C=C/c1ccc(N=C=S)cc1S(=O)(=O)O`, the neuronal differentiation score ([1]; library: Spectrum) is reported as inactive: 0 and the “dopaminergic neuron differentiation score” value ([2]; library: Spectrum) is reported as inactive: 0.
With `OC(CCN1CCCCC1)(c1ccccc1)c1ccccc1` [Pridinol methanesulfonate salt] the neuronal differentiation score ([1]; library: Prestwick) was inactive: 0 and the “dopaminergic neuron differentiation score” value ([2]; library: Prestwick) was inactive: 0.
`COc1ccccc1OCC(O)CN1CCN(CC(=O)Nc2c(C)cccc2C)CC1` (stereo not drawn) [Ranolazine] was tested, and the neuronal differentiation score ([1]; library: Prestwick) was inactive: 0 and the “dopaminergic neuron differentiation score” value ([2]; library: Prestwick) was inactive: 0.
With `CCCc1nc2c(C)cc(-c3nc4ccccc4n3C)cc2n1Cc1ccc(-c2ccccc2C(=O)O)cc1` [Telmisartan] the neuronal differentiation score ([1]; library: Prestwick) was inactive: 0 and the “dopaminergic neuron differentiation score” value ([2]; library: Prestwick) was inactive: 0.
In the case of `COc1cc2cc(Oc3ccc4ccc(=O)oc4c3)c(=O)oc2cc1O` [daphnoretin], the neuronal differentiation score ([1]; library: Natural) is reported as inactive: 0 and the “dopaminergic neuron differentiation score” value ([2]; library: Natural) is reported as inactive: 0.
With `NCCc1cc[nH]n1` the neuronal differentiation score ([1]; library: Spectrum) was inactive: 0 and the “dopaminergic neuron differentiation score” value ([2]; library: Spectrum) was inactive: 0.
With `COC(=O)C(N)Cc1ccc(Cl)cc1` (racemic) [DL-p-Chlorophenylalanine methyl ester hydrochloride] the neuronal differentiation score ([1]; library: LOPAC) was inactive: 0 and the “dopaminergic neuron differentiation score” value ([2]; library: LOPAC) was inactive: 0.
With `O=S(=O)(c1cccc2cnccc12)N1CCCNCC1` [Fasudil hydrochloride] the neuronal differentiation score ([1]; library: Tocriscreen) was inactive: -2 and the “dopaminergic neuron differentiation score” value ([2]; library: Tocriscreen) was inactive: 0.
With `CCN(CC)CCCCCCCCOC(=O)c1cc(OC)c(OC)c(OC)c1` [TMB-8 hydrochloride] the neuronal differentiation score ([1]; library: LOPAC) was inactive: 1 and the “dopaminergic neuron differentiation score” value ([2]; library: LOPAC) was inactive: 0.
`O=C(/C=C/c1ccc(O)cc1)c1ccc(O)cc1O` [2,4,4-trihydroxychalcone] was tested, and the neuronal differentiation score ([1]; library: Natural) was inactive: 0 and the “dopaminergic neuron differentiation score” value ([2]; library: Natural) was inactive: 0.
For `CC[C@H]1OC(=O)[C@H](C)[C@@H](O[C@H]2C[C@@](C)(OC)[C@@H](O)[C@H](C)O2)[C@H](C)[C@@H](O[C@@H]2O[C@H](C)C[C@H](N(C)C)[C@H]2O)[C@](C)(O)C[C@@H](C)/C(=N\OCOCCOC)[C@H](C)[C@@H](O)[C@]1(C)O`, the neuronal differentiation score ([1]; library: Spectrum) was inactive: 0 and the “dopaminergic neuron differentiation score” value ([2]; library: Spectrum) was inactive: 0.
For `O=c1c(O)c(-c2ccc(O)cc2O)oc2cc(O)cc(O)c12` [Morin], the neuronal differentiation score ([1]; library: LOPAC) was inactive: 0 and the “dopaminergic neuron differentiation score” value ([2]; library: LOPAC) was inactive: 0.
For `COc1cc(CC(=O)O)ccc1O` [4-Hydroxy-3-methoxyphenylacetic acid], the neuronal differentiation score ([1]; library: LOPAC) was inactive: 0 and the “dopaminergic neuron differentiation score” value ([2]; library: LOPAC) was inactive: 0.
`CC(=O)C1=C(O)C=C2Oc3c(C(C)=O)c(O)c(C)c(O)c3[C@]2(C)C1=O` [usnic acid] was tested, and the neuronal differentiation score ([1]; library: Natural) was inactive: 0 and the “dopaminergic neuron differentiation score” value ([2]; library: Natural) was inactive: 0.
In the case of `C/C=C/c1ccc(OC(C)[C@@H](O)c2ccc(O)c(OC)c2)c(OC)c1` (stereo partly drawn), the neuronal differentiation score ([1]; library: Natural) is reported as inactive: 0 and the “dopaminergic neuron differentiation score” value ([2]; library: Natural) is reported as inactive: 0.
For `CN1[C@@H]2CC[C@H]1C[C@@H](OC(=O)C(O)c1ccccc1)C2` (stereo partly drawn) [Homatropine HBr], the neuronal differentiation score ([1]; library: Phytochemical) was inactive: 0 and the “dopaminergic neuron differentiation score” value ([2]; library: Phytochemical) was inactive: 0.
`COc1ccccc1OCC(O)COC(N)=O` (stereo not drawn) was tested, and the neuronal differentiation score ([1]; library: Spectrum) was inactive: 0 and the “dopaminergic neuron differentiation score” value ([2]; library: Spectrum) was inactive: 0.
For `COC(=O)c1sccc1S(=O)(=O)Nc1ccc(Nc2ccccc2)cc1OC`, the neuronal differentiation score ([1]; library: Tocriscreen) was inactive: 0 and the “dopaminergic neuron differentiation score” value ([2]; library: Tocriscreen) was inactive: 0.
`Cc1cc(NC(=O)Nc2ccc3c(ccn3C)c2)sn1` was tested, and the neuronal differentiation score ([1]; library: LOPAC) was inactive: 0 and the “dopaminergic neuron differentiation score” value ([2]; library: LOPAC) was inactive: 0.
In the case of `CC(c1cc2ccccc2s1)N(O)C(N)=O` (stereo not drawn), the neuronal differentiation score ([1]; library: Spectrum) is reported as inactive: -1 and the “dopaminergic neuron differentiation score” value ([2]; library: Spectrum) is reported as inactive: 0.
With `CCCCNc1ccc(C(=O)OCCOCCOCCOCCOCCOCCOCCOCCOCCOC)cc1` the neuronal differentiation score ([1]; library: Spectrum) was inactive: 0 and the “dopaminergic neuron differentiation score” value ([2]; library: Spectrum) was inactive: 0.
In the case of `Cc1cc(O)c(C(=O)N[C@@H](C(=O)N[C@@H]2C(=O)N3C(C(=O)O)=C(CSc4nnnn4C)CS[C@H]23)c2ccc(O)cc2)cn1`, the neuronal differentiation score ([1]; library: Spectrum) is reported as inactive: 0 and the “dopaminergic neuron differentiation score” value ([2]; library: Spectrum) is reported as inactive: 0.
In the case of `Clc1ccc(CCC(Cn2ccnc2)Sc2c(Cl)cccc2Cl)cc1` (stereo not drawn) [Butoconazole nitrate], the neuronal differentiation score ([1]; library: Prestwick) is reported as inactive: 0 and the “dopaminergic neuron differentiation score” value ([2]; library: Prestwick) is reported as inactive: 0.
With `C#C[C@]1(OC(C)=O)CC[C@H]2[C@@H]3CCC4=CC(=O)CC[C@@H]4[C@H]3CC[C@@]21C` the neuronal differentiation score ([1]; library: Spectrum) was inactive: 0 and the “dopaminergic neuron differentiation score” value ([2]; library: Spectrum) was inactive: 0.
For `CC(=O)O[C@H]1C(=O)[C@@]2(C)[C@H]([C@H](OC(=O)c3ccccc3)[C@]3(O)C[C@H](OC(=O)[C@H](O)[C@@H](NC(=O)c4ccccc4)c4ccccc4)C(C)=C1C3(C)C)[C@]1(OC(C)=O)CO[C@@H]1C[C@@H]2O` [Paclitaxel], the neuronal differentiation score ([1]; library: Prestwick) was inactive: 0 and the “dopaminergic neuron differentiation score” value ([2]; library: Prestwick) was inactive: 0.
With `Cn1c(=O)c2[nH]c(-c3ccccc3)nc2n(C)c1=O` [1,3-Dimethyl-8-phenylxanthine] the neuronal differentiation score ([1]; library: LOPAC) was inactive: 0 and the “dopaminergic neuron differentiation score” value ([2]; library: LOPAC) was inactive: 0.
With `O=C(Nc1ccc([N+](=O)[O-])cc1O)Nc1ccccc1Br` the neuronal differentiation score ([1]; library: Tocriscreen) was inactive: 0 and the “dopaminergic neuron differentiation score” value ([2]; library: Tocriscreen) was inactive: 0.
`N[C@@H](Cn1ccc(=O)n(Cc2ccccc2C(=O)O)c1=O)C(=O)O` was tested, and the neuronal differentiation score ([1]; library: Tocriscreen) was inactive: 0 and the “dopaminergic neuron differentiation score” value ([2]; library: Tocriscreen) was inactive: 0.
For `CC(C)(Oc1ccc(Cl)cc1)C(=O)O`, the neuronal differentiation score ([1]; library: Spectrum) was inactive: 0 and the “dopaminergic neuron differentiation score” value ([2]; library: Spectrum) was inactive: 0.
